Test results: publication PMC10754819
Results are given in words; binding and its absence hold for the method and conditions named. Binding seen in cells or lysates may run through a third protein. Tags and fused reporters may be left off the sequences shown.

The chains behind the UniProt entries cited, without tags or fusion partners.
UniProt Q9NFU0: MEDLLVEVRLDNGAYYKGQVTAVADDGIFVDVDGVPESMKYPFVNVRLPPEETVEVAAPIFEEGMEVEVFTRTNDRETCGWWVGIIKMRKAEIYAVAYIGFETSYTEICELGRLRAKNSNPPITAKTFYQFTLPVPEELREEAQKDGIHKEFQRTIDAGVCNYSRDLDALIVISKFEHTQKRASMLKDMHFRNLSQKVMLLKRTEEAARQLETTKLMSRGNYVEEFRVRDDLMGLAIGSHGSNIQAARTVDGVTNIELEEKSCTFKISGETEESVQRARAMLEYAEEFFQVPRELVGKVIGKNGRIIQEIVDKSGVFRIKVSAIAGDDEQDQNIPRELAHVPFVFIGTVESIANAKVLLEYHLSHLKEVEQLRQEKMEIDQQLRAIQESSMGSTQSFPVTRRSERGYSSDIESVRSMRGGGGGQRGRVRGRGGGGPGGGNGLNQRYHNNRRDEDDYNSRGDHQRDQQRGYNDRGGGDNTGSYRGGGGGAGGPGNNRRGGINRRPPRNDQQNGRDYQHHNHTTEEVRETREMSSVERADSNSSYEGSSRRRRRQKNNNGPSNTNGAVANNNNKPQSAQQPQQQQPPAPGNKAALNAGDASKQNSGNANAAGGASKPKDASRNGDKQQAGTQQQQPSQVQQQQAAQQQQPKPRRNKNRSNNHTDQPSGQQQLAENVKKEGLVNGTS
UniProt Q9VCE6: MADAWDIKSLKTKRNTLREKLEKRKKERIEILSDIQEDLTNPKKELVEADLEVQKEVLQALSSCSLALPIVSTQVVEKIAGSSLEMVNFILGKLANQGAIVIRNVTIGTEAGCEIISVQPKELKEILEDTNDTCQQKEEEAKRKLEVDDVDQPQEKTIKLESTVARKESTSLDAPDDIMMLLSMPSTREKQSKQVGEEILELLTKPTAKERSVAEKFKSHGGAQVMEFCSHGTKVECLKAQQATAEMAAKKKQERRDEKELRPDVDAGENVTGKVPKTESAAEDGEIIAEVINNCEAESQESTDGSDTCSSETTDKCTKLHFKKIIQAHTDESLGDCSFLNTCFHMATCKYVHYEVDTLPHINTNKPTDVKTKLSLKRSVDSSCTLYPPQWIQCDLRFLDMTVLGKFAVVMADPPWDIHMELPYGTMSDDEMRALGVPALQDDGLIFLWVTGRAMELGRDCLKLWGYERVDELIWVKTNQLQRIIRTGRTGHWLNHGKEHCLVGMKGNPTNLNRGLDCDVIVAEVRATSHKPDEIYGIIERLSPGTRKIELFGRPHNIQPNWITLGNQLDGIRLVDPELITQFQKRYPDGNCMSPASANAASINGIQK

T1: dTrmt10A-FLAG-HA (Drosophila Trmt10A, CG14618) (Drosophila) (UniProt Q9VR56)
T1 sequence: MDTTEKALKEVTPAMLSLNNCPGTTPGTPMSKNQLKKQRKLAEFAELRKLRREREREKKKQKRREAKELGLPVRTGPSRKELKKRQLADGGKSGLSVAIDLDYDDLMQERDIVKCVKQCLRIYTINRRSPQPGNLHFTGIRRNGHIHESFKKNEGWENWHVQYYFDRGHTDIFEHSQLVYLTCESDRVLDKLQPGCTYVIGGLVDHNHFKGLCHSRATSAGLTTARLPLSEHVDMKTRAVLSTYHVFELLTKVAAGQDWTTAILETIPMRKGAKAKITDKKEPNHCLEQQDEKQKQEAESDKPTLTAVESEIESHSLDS

B1: Ythdc1 (protein, UniProt Q9VZQ1 1-721)
chain: MPRAARKQTLPMREMADLDAVHLGLDENEADIAEELQDFEFNTRSEASESNGGDSSDSEPSISSVSTATSSLAGSSKRKTKKPAKQSPQPAVETKSSKSSAKNKAKREPTPEELNGGKKKKRTDSGTKKTTSSEASDKVKSKSPDTEDRQPSAKKSRTKIPSNANDSAGHKSDLSEAEDEKPSLPTLESDSESSDSDSGTQHKRNGGNGGGNGRGKPSSKSSTPEKDSVGGGTHSHSQKGYDYMTKLNYLFRDTRFFLIKSNNSDNVQLSKNKSVWATLPQNDANLNQAFKEARNVLLIFSVNESGKFAGFARMAAPSRRDIPQVAWVLPPSISPKALGGVIELDWICRKELSFNATLHLHNTWNEGKPVKIGRDGQEIEPKIGGELCRLFPEDEQIELTPILKKSKETARVMREKGIHVIYKPPRSLSSRGHGGGGRGGGRGSNHDHLGPMRHKRSYHGAPHHRPYRHHHGMGLPPGGGFKRSGSPYRQMGGAAGAPPGGPGDMAMPSWERYMSSAAAAEAYVADYMRNMHGQLPPLPFVPPFAQLPIPGAGAGAAGALPPGAAAAMYEQLPPPVRYYDGPGAPPLPDYPPPQRPPPPGFDKAPSYEEFAAWKNAGLPTVPPPGFPVYGGAANGGSNGAGGLAAAQAAAAGGGMGAGGGSGGGMGGPGGYRNRDGNNGSAGGRRREYGNRSGGGGSSRDSRPFRERGGGGGQRSYRDNRR

target: T1, dTrmt10A-FLAG-HA (Drosophila Trmt10A, CG14618) (Drosophila); experiment: co-IP; dTrmt10A-FLAG-HA immunoprecipitated from adult fly head lysates with anti-HA antibody on agarose resin (Pierce Co-IP kit), mouse IgG as control; immunoblotting (Supplementary Fig. 4)

Row | binding | Molecule
1 | no binding | Fmr1 (from UniProt Q9NFU0 1-684)
2 | no binding | Mettl3 (from UniProt Q9VCE6 1-608) (enzyme)
3 | no binding | B1
